Source: publication PMC4836212
Results are given in words; binding and its absence hold for the method and conditions named. In cells and extracts the contact can be indirect. Some results given as binding are weak or reduced against the parent protein; the word gives no strength.

The chains behind the UniProt entries cited, without tags or fusion partners. Where a name states a change or a piece, a line headed by the entry shows the natural chain unless it says otherwise. A line that says so, or that is headed by a name, gives the form on record, which may keep a tag or linker.
UniProt O14983: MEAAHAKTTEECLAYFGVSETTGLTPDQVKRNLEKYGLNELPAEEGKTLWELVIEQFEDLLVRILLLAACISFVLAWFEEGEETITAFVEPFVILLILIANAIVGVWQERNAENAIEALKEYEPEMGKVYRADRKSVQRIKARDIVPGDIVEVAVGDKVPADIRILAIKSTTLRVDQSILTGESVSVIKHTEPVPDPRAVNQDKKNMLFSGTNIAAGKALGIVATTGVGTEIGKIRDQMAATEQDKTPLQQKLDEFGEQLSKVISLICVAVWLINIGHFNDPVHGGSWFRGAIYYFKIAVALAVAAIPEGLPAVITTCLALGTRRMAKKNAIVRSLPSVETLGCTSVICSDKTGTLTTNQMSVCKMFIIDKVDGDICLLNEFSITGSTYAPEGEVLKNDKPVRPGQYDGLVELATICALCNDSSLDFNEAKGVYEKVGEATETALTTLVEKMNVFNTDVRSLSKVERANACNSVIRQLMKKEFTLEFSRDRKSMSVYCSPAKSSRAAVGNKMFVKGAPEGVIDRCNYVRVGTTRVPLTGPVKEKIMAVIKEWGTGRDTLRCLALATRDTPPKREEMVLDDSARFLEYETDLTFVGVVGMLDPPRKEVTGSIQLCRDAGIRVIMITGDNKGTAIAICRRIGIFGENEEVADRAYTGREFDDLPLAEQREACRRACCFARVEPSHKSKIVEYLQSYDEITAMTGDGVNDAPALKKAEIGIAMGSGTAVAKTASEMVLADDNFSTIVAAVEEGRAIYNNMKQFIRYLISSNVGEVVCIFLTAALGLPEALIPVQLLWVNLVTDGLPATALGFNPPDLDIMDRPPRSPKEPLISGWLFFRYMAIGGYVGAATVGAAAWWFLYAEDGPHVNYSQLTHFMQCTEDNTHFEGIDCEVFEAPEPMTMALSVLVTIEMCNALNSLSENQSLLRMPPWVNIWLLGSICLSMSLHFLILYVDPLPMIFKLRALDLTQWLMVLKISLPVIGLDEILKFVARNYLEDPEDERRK
sarco/endoplasmic reticulum Ca2+ ATPase 2 (P16615-2, form named): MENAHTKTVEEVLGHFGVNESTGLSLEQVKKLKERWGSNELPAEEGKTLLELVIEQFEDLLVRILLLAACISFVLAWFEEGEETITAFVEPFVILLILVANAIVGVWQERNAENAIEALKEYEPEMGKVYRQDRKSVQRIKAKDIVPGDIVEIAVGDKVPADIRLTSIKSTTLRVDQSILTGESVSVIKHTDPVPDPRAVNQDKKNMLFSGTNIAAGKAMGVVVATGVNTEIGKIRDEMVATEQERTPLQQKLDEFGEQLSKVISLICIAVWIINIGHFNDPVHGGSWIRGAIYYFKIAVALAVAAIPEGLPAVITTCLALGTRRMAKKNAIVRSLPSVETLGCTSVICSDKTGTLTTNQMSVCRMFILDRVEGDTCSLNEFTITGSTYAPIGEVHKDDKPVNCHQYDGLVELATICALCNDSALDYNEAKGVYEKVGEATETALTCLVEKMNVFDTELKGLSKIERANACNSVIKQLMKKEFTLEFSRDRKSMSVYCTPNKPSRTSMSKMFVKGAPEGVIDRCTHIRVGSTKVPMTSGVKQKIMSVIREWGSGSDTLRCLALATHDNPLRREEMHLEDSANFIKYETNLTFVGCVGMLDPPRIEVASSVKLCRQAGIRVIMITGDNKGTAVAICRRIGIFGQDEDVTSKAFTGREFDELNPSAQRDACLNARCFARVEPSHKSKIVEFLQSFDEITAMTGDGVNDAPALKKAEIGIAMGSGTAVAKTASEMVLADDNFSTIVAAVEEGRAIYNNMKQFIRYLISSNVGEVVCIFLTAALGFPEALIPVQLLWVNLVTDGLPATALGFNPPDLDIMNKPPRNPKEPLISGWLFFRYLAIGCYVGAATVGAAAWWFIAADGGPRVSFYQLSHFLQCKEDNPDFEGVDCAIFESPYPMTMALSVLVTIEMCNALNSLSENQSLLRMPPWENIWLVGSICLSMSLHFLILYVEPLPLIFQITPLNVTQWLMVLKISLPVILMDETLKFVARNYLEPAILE

Columns and labels:
[1] = biological target: T1, calpain 3 (human (endogenous in skeletal muscle)) (UniProt P20807); assay: co-IP; endogenous proteins; protein extract (500 ug) of the vastus lateralis of a healthy human donor in modified RIPA buffer (10 mM Tris, 100 mM NaCl, 1 mM EDTA, 1 mM EGTA, 1% Triton X-100, 0.5% sodium deoxycholate, 0.1% SDS, 10% glycerol, pH 7.5); antibodies against CAPN3 (pIS2C), SERCA1 or SERCA2 overnight at 4°C, protein G sepharose; Western blot; normal mouse and goat IgGs as negative controls
T1 sequence: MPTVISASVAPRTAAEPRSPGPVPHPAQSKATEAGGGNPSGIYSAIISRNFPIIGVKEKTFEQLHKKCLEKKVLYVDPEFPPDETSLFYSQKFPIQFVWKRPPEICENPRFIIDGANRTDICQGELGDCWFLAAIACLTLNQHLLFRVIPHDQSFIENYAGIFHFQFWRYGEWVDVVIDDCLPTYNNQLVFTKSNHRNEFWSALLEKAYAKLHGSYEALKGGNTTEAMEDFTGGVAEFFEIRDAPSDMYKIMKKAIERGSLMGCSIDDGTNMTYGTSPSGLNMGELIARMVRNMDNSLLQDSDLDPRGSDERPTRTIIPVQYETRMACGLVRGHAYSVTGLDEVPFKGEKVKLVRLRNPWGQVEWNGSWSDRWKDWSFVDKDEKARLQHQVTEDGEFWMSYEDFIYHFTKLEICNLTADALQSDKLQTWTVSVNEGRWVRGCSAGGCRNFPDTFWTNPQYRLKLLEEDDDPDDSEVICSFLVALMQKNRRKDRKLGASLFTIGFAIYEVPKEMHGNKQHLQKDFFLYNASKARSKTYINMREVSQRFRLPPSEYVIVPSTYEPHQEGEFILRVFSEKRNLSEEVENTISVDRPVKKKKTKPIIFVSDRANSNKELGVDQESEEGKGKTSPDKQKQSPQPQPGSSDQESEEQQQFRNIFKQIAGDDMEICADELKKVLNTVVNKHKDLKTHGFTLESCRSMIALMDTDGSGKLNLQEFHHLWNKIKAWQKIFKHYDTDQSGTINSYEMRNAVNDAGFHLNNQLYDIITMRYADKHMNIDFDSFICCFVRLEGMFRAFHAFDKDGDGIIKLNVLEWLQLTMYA

[2] = biological target: T1, calpain 3 (human (endogenous in skeletal muscle)); assay: proximity ligation; in situ PLA (Duolink II Red), 10-um cryosections of a control human (dorsal) muscle; primary antibodies pIS2C, 12A2-Calpain3, SERCA1, SERCA2a, ANK1; spots mean <40 nm distance

| Substance | binding [1] | binding [2] |
| --- | --- | --- |
| sarco/endoplasmic reticulum Ca2+ ATPase 1 (from UniProt O14983 1-1001) | binds | binds |
| sarco/endoplasmic reticulum Ca2+ ATPase 2 (from UniProt P16615-2 1-997) | binds | binds |
